Results are given in words; binding and its absence hold for the method and conditions named. Binding seen in cells or lysates may run through a third protein. Some binding calls cover weakened binding; strength is not graded here. For part of these data: Tags and fused reporters may be left off the sequences shown. One block for each molecule: values may come before it.
Key:
[1] = target: endogenous DD1α receptor in lysates of Nutlin-3-treated MCF7 cells (human) (UniProt Q9H7M9); assay: Ig fusion protein pull-down from lysates of Nutlin-3-treated MCF7 cells, western blot
[2] = target: endogenous DD1α receptor in lysates of Nutlin-3-treated MCF7 cells (human) (UniProt Q9H7M9); assay: Ig pull-down from lysates of Nutlin-3-treated MCF7 cells, western blot
[3] = target: DD1α-HA (human) (UniProt Q9H7M9); assay: Ig fusion protein pull-down from lysates of transfected 293T cells, anti-HA western blot
[4] = target: endogenous PD-1 in lysates of Nutlin-3-treated MCF7 cells (human) (UniProt Q15116); assay: Ig fusion protein pull-down from lysates of Nutlin-3-treated MCF7 cells, western blot
[5] = target: PD1-HA (human) (UniProt Q15116); assay: Ig pull-down from lysates of transfected HEK293T cells, anti-HA western blot (FIG. 6C)
[6] = target: DD1α-HA (human) (UniProt Q9H7M9); assay: as above
[7] = target: endogenous PD-1 in lysates of Nutlin-3-treated MCF7 cells (human) (UniProt Q15116); assay: Ig pull-down from lysates of Nutlin-3-treated MCF7 cells, western blot
[8] = target: PD1-HA (human) (UniProt Q15116); assay: Ig fusion protein pull-down from lysates of transfected 293T cells, anti-HA western blot
[9] = target: PD-1 (co-immunoprecipitation of FIG. 31) (Homo sapiens (Human)) (UniProt Q15116); assay: co-immunoprecipitation
[10] = target: T1, His-DD1α (33-194) (human, UniProt Q9H7M9 33-194); assay: in vitro GST pull-down, anti-His immunoblot
T1 construct: not shown: His tag of the pRSET vector (Invitrogen)

Chains of the proteins cited; added tags and fusions are not shown. Lines headed by an entry give the natural chain unless they say otherwise; changes in a name come on top.
UniProt Q15116: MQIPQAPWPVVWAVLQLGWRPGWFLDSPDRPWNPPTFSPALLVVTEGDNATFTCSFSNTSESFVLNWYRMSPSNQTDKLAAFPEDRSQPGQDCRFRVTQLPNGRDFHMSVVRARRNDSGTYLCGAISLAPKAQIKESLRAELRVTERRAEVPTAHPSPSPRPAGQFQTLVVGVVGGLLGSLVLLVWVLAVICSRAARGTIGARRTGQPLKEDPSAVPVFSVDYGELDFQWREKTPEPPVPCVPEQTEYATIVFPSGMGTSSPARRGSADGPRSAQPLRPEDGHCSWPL

Molecule: DD1α-Ig fusion protein (the extracellular region of DD1α fused with the immunoglobulin G Fc segment) (from UniProt Q9H7M9 33-194) (Fc fusion)
binding [4]: binds
binding [1]: binds
binding [5]: binds
binding [6]: binds
binding [7]: binds
binding [8]: binds
binding [3]: binds

B1: GST-DD1α (37-146), the immunoglobulin domain (protein, not shown: a dimerising Fc or GST; small tags and cut ends)
chain: TPYSLYVCPEGQNVTLTCRLLGPVDKGHDVTFYKTWYRSSRGEVQTCSERRPIRNLTFQDLHLHHGGHQAANTSHDLAQRHGLESASDHHGNFSITMRNLTLLDSGLYCC
binding [10]: binds

Next, values leading:

binding [1]: binds
binding [2]: binds
binding [3]: binds
Molecule: PD-1-Ig (recombinant human PD-1-Ig, R&D Systems) (from UniProt Q15116 25-167) (Fc fusion)

binding [9]: binds
Molecule: DD1α (co-immunoprecipitation of FIG. 31) (from UniProt Q9H7M9 33-311) (receptor)

From US20170184604A1, “DD1ALPHA RECEPTOR AND USES THEREOF IN IMMUNE DISORDERS” (THE GENERAL HOSPITAL CORPORATION, priority 2014, published 2017)
